According to the supplement of paper PMC10727501:
This is one part of the list. This data set is noisy: repeats of one test often differ as much as different tests do.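 Researchers measured free-swimming zebrafish larvae's O-bend response probability to dark flashes (naive: first five; training: remaining flashes of four 60-flash blocks; test: later 60-flash block) and OMR turning toward alternating leftward/rightward LED motion. Six treated larvae were compared to sixty 0.1% DMSO controls, with |SSMD|≥2 marking a hit.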

Tested on: Danio rerio larvae (5 dpf, TLF)
Assay: Prob-Test (SSMD vs DMSO vehicle); higher = higher than vehicle (e.g. higher dark-flash O-bend response probability, or better optomotor performance)
Conditions: 10 µM; pre-incubation: 30-90 min

Q: For `Oc1ccc(OCc2ccccc2)cc1` [Monobenzone], which Prob-Test is on record?
A: Its Prob-Test is -1.08.

Q: With `CCCCNc1ccc(C(=O)OCCN(C)C)cc1.Cl` [Tetracaine HCl] as the molecule, how does the Prob-Test read?
A: Its Prob-Test is 0.0826.

Q: Which Prob-Test does the source give for `CC(C)NCC(O)COc1ccc(CCOCC2CC2)cc1` (stereo not given) [Betaxolol] here?
A: The Prob-Test was -0.14.

Q: Which Prob-Test does the source give for `COc1cc2ncnc(Nc3ccc(O)c(Br)c3)c2cc1OC` here?
A: The Prob-Test was -0.496.

Q: `CO/N=C(/C(=O)N[C@H]1C(=O)N2C(C(=O)O)=C(Cn3ccc(=N)n3CCO)CS[C@H]12)c1csc(N)n1.O=S(=O)(O)O` [Cefoselis Sulfate] was tested. Which Prob-Test did it give?
A: The Prob-Test was 0.185.

Q: `Nc1ncnc2c1ncn2[C@H]1O[C@H](CO)[C@@H](O)[C@H]1O` [Adenosine] was tested. Which Prob-Test did it give?
A: Its Prob-Test is -0.173.

Q: For `O=C(O)c1ccc(Nc2ncc3c(n2)-c2ccc(Cl)cc2C(c2c(F)cccc2F)=NC3)cc1`, which Prob-Test is on record?
A: The Prob-Test was -1.95.

Q: Which Prob-Test does the source give for `CNC(=O)c1ccc(C)c(-n2c(C)cc(OCc3ccc(F)cc3F)c(Br)c2=O)c1` here?
A: The Prob-Test was -0.453.

Q: With `CCOc1cc(N)c(Cl)cc1C(=O)NCC1CN(Cc2ccc(F)cc2)CCO1.O=C(O)CC(O)(CC(=O)O)C(=O)O` (stereo not given) [Mosapride Citrate] as the molecule, how does the Prob-Test read?
A: The Prob-Test was -1.36.

Q: Which Prob-Test does the source give for `CC(C)(C)c1ccc(-c2nc3ccccc3[nH]2)cc1` here?
A: Its Prob-Test is -0.412.

Q: Which Prob-Test does the source give for `COc1ccc(C(C)=O)c(O)c1` [Paeonol] here?
A: The Prob-Test was -0.387.

Q: For `O=C1c2ccccc2C(=O)C1c1ccccc1` [Phenindione], which Prob-Test is on record?
A: Its Prob-Test is 0.045.

Q: Which Prob-Test does the source give for `OC[C@H](O)CN1CCN(c2ccccc2)CC1` [Levodropropizine] here?
A: Its Prob-Test is -0.436.

Q: How did the Prob-Test turn out when `Cc1cnc(Nc2ccc(OCCN3CCCC3)cc2)nc1Nc1cccc(S(=O)(=O)NC(C)(C)C)c1` was run?
A: The Prob-Test was -0.175.

Q: For `COC(=O)[C@H](c1ccccc1Cl)N1CCc2sccc2C1.O=S(=O)(O)O` [Clopidogrel], which Prob-Test is on record?
A: The Prob-Test was -1.38.

Q: `CN1CCN(S(=O)(=O)c2ccc(-c3cnc(N)c(C(=O)Nc4cccnc4)n3)cc2)CC1` was tested. Which Prob-Test did it give?
A: The Prob-Test was -0.501.

Q: `Cc1ccc(O)c([C@H](CCN(C(C)C)C(C)C)c2ccccc2)c1.O=C(O)[C@H](O)[C@@H](O)C(=O)O` [Tolterodine tartrate] was tested. Which Prob-Test did it give?
A: Its Prob-Test is 0.239.

Q: Which Prob-Test does the source give for `C=C[C@]1(C)C[C@@H](OC(=O)CSC(C)(C)CNC(=O)[C@H](N)C(C)C)[C@@]2(C)[C@H](C)CC[C@]3(CCC(=O)[C@H]32)[C@@H](C)[C@@H]1O.Cl` [Valnemulin HCl] here?
A: Its Prob-Test is 0.185.

Q: Which Prob-Test does the source give for `CN1CCN(c2c(F)cc3c(=O)c(C(=O)O)cn(CCF)c3c2F)CC1` [Fleroxacin (Quinodis)] here?
A: Its Prob-Test is -0.548.

Q: How did the Prob-Test turn out when `CN1CCc2nc(C(=O)N[C@H]3C[C@H](C(=O)N(C)C)CC[C@@H]3NC(=O)C(=O)Nc3ccc(Cl)cn3)sc2C1` [Edoxaban] was run?
A: Its Prob-Test is -0.089.

Q: With `CC(C)CN(C[C@@H](O)[C@H](Cc1ccccc1)NC(=O)O[C@H]1CCOC1)S(=O)(=O)c1ccc(N)cc1` [Amprenavir] as the molecule, how does the Prob-Test read?
A: The Prob-Test was -0.0494.

Q: With `O=C(O)c1ccc(O)c2ncccc12` as the molecule, how does the Prob-Test read?
A: The Prob-Test was -0.0416.

Q: `CN(C)Cc1ccc(S(=O)(=O)n2ccc(/C=C/C(=O)NO)c2)cc1` [Resminostat] was tested. Which Prob-Test did it give?
A: Its Prob-Test is 0.291.

Q: How did the Prob-Test turn out when `Oc1c(Cl)cc(Cl)c2cccnc12` [Chloroxine] was run?
A: The Prob-Test was -1.44.

Q: With `Cn1c(N2CCCCS2(=O)=O)nc(C(=O)NCc2ccc(F)cc2)c(O)c1=O` as the molecule, how does the Prob-Test read?
A: The Prob-Test was -1.85.

Q: With `CCOC(=O)c1ccc(OC(=O)CCCCCNC(=N)N)cc1.CS(=O)(=O)O` [Gabexate Mesylate] as the molecule, how does the Prob-Test read?
A: Its Prob-Test is 0.00417.

Q: Which Prob-Test does the source give for `CN(C)CC[C@H](CSc1ccccc1)Nc1ccc(S(=O)(=O)NC(=O)c2ccc(N3CCN(Cc4ccccc4-c4ccc(Cl)cc4)CC3)cc2)cc1[N+](=O)[O-]` here?
A: The Prob-Test was -0.131.

Q: For `CN(N=O)C(=O)N[C@@H]1[C@@H](O)[C@H](O)[C@@H](CO)O[C@@H]1O` [Streptozotocin (STZ)], which Prob-Test is on record?
A: Its Prob-Test is -0.33.

Q: `CC(=O)Nc1cccc2c1c(Sc1ccc(Cl)cc1)c(C)n2CC(=O)O` was tested. Which Prob-Test did it give?
A: Its Prob-Test is -0.209.

Q: `Cc1nccn1CC1CCc2c(c3ccccc3n2C)C1=O` (stereo not given) [Ondansetron (Zofran)] was tested. Which Prob-Test did it give?
A: The Prob-Test was 0.694.

Q: How did the Prob-Test turn out when `CCCCOc1ccc(OCCCN2CCOCC2)cc1.Cl` [Pramoxine HCl] was run?
A: Its Prob-Test is -1.79.

Q: With `Cn1cncc1[C@@](N)(c1ccc(Cl)cc1)c1ccc2c(c1)c(-c1cccc(Cl)c1)cc(=O)n2C` [Tipifarnib] as the molecule, how does the Prob-Test read?
A: Its Prob-Test is -1.61.

Q: Which Prob-Test does the source give for `CC(=O)OCC(=O)[C@]12N=C(C)O[C@@H]1C[C@H]1[C@@H]3CCC4=CC(=O)C=C[C@]4(C)[C@@H]3[C@H](O)C[C@@]12C` [Deflazacort] here?
A: Its Prob-Test is 0.164.

Q: For `CN(C)CCCOc1nn(Cc2ccccc2)c2ccccc12.Cl` [Benzydamine HCl], which Prob-Test is on record?
A: Its Prob-Test is 0.634.

Q: How did the Prob-Test turn out when `CCCCCCNC(=O)n1cc(F)c(=O)[nH]c1=O` [Carmofur] was run?
A: The Prob-Test was -0.8.

Q: `C#CCN[C@H]1CCc2ccccc21.CS(=O)(=O)O` [Rasagiline Mesylate] was tested. Which Prob-Test did it give?
A: The Prob-Test was -0.327.

Q: With `Cc1nc2n(c(=O)c1CCN1CCC(c3noc4cc(F)ccc34)CC1)CCC[C@H]2O` [Paliperidone (Invega)] as the molecule, how does the Prob-Test read?
A: Its Prob-Test is -0.551.

Q: `Cc1nc(-c2ccc(OCC(C)C)c(C#N)c2)sc1C(=O)O` [Febuxostat] was tested. Which Prob-Test did it give?
A: Its Prob-Test is -0.101.

Q: With `CCCC(CCC)C(=O)[O-].[Na+]` [Valproic acid sodium salt (Sodium valproate)] as the molecule, how does the Prob-Test read?
A: Its Prob-Test is -1.05.

Q: `COc1cc2ncnc(Nc3ccc(F)c(Cl)c3)c2cc1NC(=O)/C=C/CN1CCCCC1` was tested. Which Prob-Test did it give?
A: Its Prob-Test is -0.81.
